# Data from the supplement of paper PMC9015667.
# Structures can show the parent of a compound that is named as a salt. ± gives the standard deviation of the averaged measurements. Some of the results follow. Repeats are few or missing, and single values can be far off.
# How the values were obtained:
# Assay in all cases: reduction in cell viability relative to untreated/vehicle; higher = more growth inhibition
# Settings in all cases: 200 nM; 72 h
# [1] = test system: M229P (parental melanoma line)
# [2] = test system: M229R (matched melanoma line resistant to BRAF inhibitors)
# [3] = test system: M238P (parental melanoma line)
# [4] = test system: M238R (matched melanoma line resistant to BRAF inhibitors)
# [5] = test system: M249P (parental melanoma line)
# [6] = test system: M249R (matched melanoma line resistant to BRAF inhibitors)
# [7] = test system: UACC62P (parental melanoma line)
# [8] = test system: UACC62R (matched melanoma line resistant to BRAF inhibitors)
SMILES,reduction in cell viability [1] [%],reduction in cell viability [2] [%],reduction in cell viability [3] [%],reduction in cell viability [4] [%],reduction in cell viability [5] [%],reduction in cell viability [6] [%],reduction in cell viability [7] [%],reduction in cell viability [8] [%]
CO[C@H]1C[C@@H]2CC[C@@H](C)[C@@](O)(O2)C(=O)C(=O)N2CCCC[C@H]2C(=O)O[C@H]([C@H](C)C[C@@H]2CC[C@@H](OCCO)[C@H](OC)C2)CC(=O)[C@H](C)/C=C(\C)[C@@H](O)[C@@H](OC)C(=O)[C@H](C)C[C@H](C)/C=C/C=C/C=C/1C [Everolimus],6.08 ± 4.4,11.3 ± 3.2,12.6 ± 2.8,3.83 ± 3.3,6.33 ± 2.7,23.2 ± 2.3,11.6 ± 4.3,3.31 ± 4.5
COc1cc(-c2nn([C@H]3CC[C@H](N4CCN(C(C)=O)CC4)CC3)c3ncnc(N)c23)ccc1NC(=O)c1cc2ccccc2n1C,< 0,< 0,11.9,< 0,< 0,< 0,12.7,< 0
NS(=O)(=O)c1ccc(Nc2nc(OCC3CCCCC3)c3[nH]cnc3n2)cc1,< 0,< 0,< 0,< 0,< 0,< 0,< 0,< 0
CC(C)(C)c1cnc(CSc2cnc(NC(=O)C3CCNCC3)s2)o1,57.2,60.8,102,58.6,94.4,98.7,90.3,84.2
O=C1c2c(O)cccc2C([C@@H]2O[C@H](CO)[C@@H](O)[C@H](O)[C@H]2O)c2cc(CO)cc(O)c21 (stereo partly drawn) [Aloin],< 0,< 0,< 0,< 0,< 0,< 0,< 0,< 0
CC(C)OC(=O)C(C)(C)Oc1ccc(C(=O)c2ccc(Cl)cc2)cc1 [Fenofibrate],< 0,< 0,< 0,< 0,< 0,< 0,1.33,< 0
C[C@@H]1CC[C@@]2(OC1)O[C@H]1C[C@H]3[C@@H]4CC=C5C[C@@H](O)CC[C@]5(C)[C@H]4CC[C@]3(C)[C@H]1[C@@H]2C [Diosgenin],< 0,< 0,< 0,< 0,< 0,< 0,< 0,< 0
CC#C[C@]1(O)CC[C@H]2[C@@H]3CCC4=CC(=O)CCC4=C3[C@@H](c3ccc(N(C)C)cc3)C[C@@]21C [Mifepristone],< 0,1.49,< 0,< 0,< 0,< 0,< 0,< 0
O=C(CCCN1CCC(O)(c2ccc(Cl)cc2)CC1)c1ccc(F)cc1 [Haloperidol],< 0,< 0,< 0,< 0,< 0,< 0,0.87,< 0
NCCc1c[nH]cn1 [Histamine dihydrochloride],< 0,< 0,< 0,< 0,< 0,< 0,0.6,< 0
CCC1(c2ccccc2)C(=O)NCNC1=O [Primidone],< 0,< 0,< 0,< 0,< 0,< 0,< 0,< 0

# Individual results from the list:
# reduction in cell viability [4] [%], `NCCc1c[nH]cn1` [Histamine dihydrochloride] reads < 0
# reduction in cell viability [3] [%], `CCC1(c2ccccc2)C(=O)NCNC1=O` [Primidone] reads < 0
